# Measured values reported in PubChem BioAssay AID493014 (National Center for Advancing Translational Sciences (NCATS), 2011).
# Some of the results follow. Shown are side measurements of this screen, not its main read-out; they come without a call. Most of these compounds were active or inconclusive in the main read-out, so they are no random draw. Words in brackets tell the shape of the fitted curve; partial curves, single points and poor fits give uncertain potencies.
# Test: qHTS Assay to Find Inhibitors of Chronic Active B-Cell Receptor Signaling
# Conditions: ABC-DLBCL IkBa-CBG/CBR reporter, luminescence ratio (green luciferase fused to IkBa over red control in TMD8 lymphoma cells), 4 h
# Procedure, shortened: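 Doxycycline induced both beetle luciferases in TMD8 lymphoma cells; IKK-driven degradation limits the IkappaBalpha-fused green signal, while red luminescence normalises for cell number and nonspecific effects. Compounds tested up to 46 uM, 4 hrs.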
# [1] = measured here: CBR red luminescence, cell number
SMILES,AC50 [1],AC50 (measured here: IkBa-CBG green luminescence)
CCOc1ccc(NC(=O)CC2C(=O)N(c3ccc(OC)cc3)C(=O)N2CCc2ccc(OC)c(OC)c2)cc1 (stereo unspecified),"3.98 µM [rising, partial curve, poor fit]",–
COc1ccc(NC(=O)c2ccc3c(c2)n(C)c(=O)n3C)cc1,"23.1 µM [rising, single point]","18.4 µM [falling, single point]"
CC(=O)OCCCN1C(=O)c2cccc3cc(Br)cc(c23)C1=O,"35.5 µM [rising, partial curve, poor fit]",–
CCOC(=O)CN(C(=O)CSc1nnc2c(n1)[nH]c1ccc(F)cc12)c1ccccc1,"3.16 µM [falling, full curve, poor fit]",–
COC(=O)CSc1nnc2c3c4c(sc3nc(-n3nc(C)cc3C)n12)COC(C)(C)C4,"3.55 µM [rising, single point]",–
COC(=O)c1ccc(NC(=O)C(=O)c2c[nH]c3ccccc23)cc1,"0.1 µM [falling, full curve, poor fit]",–
CC(NC(=O)c1ccccc1F)c1nnc(SCc2nc3ccccc3c(=O)[nH]2)n1C (stereo unspecified),"7.94 µM [falling, partial curve, poor fit]",–
Cc1cc(C)cc(NC(=O)CN(c2ccc(F)cc2)S(C)(=O)=O)c1,"11.2 µM [falling, partial curve, poor fit]",–
O=C(CSc1nnc2ccccn12)Nc1ccccc1C(=O)NC1CC1,"6.31 µM [falling, single point]",–
Cc1ccc(-c2nc3cnccn3c2Nc2ccc3c(c2)OCCO3)o1,"6.51 µM [rising, single point]",–
CCOC(=O)c1sc2nc3c(SCCC(=O)O)cc(C(=O)c4cc(OC)ccc4O)cn3c(=O)c2c1C,"5.62 µM [rising, partial curve, poor fit]",–
CCN1CCN(CC(=O)N2N=C(c3cccs3)CC2c2ccc(C)cc2)C(=O)C1=O (stereo unspecified),"8.91 µM [rising, partial curve]",–
CC(C)(C)c1ccc(C(=O)NN2C(=O)CSC2=S)cc1,"35.5 µM [rising, single point]",–
Cc1ccc(OCCC(=O)OCC(=O)N2CCN(S(=O)(=O)c3ccc(Cl)cc3)CC2)cc1,"7.31 µM [falling, partial curve, poor fit]",–
O=C(Nc1ccccc1)Nc1csc2ccccc12,"17.8 µM [falling, single point]",–
C=CCn1c(SCC(=O)Nc2sccc2C(N)=O)nc2ccccc2c1=O,"4.11 µM [falling, partial curve, poor fit]",–
COc1ccc(CC(=O)NNS(=O)(=O)c2ccccc2[N+](=O)[O-])cc1,"11.2 µM [rising, partial curve, poor fit]",–
O=C(NCc1ccccc1F)C1CCCN(C(=O)NC2CCCCC2)C1 (stereo unspecified),"14.1 µM [falling, partial curve]",–
O=[N+]([O-])c1ccc(Cl)c(-c2ccc(/C=N/c3c(-c4ccco4)nc4ccccn34)o2)c1,"31.6 µM [rising, single point]",–
CCOC(=O)Cc1csc(NC(=O)c2sc3nc4ccc(CC)cc4cc3c2N)n1,"7.08 µM [falling, partial curve]",–

SMILES,AC50 [1],AC50 (measured here: IkBa-CBG green luminescence)
CCN(CC)C(=O)c1[nH]cnc1C(=O)Nc1ccc(C)cc1,"16.4 µM [rising, partial curve, poor fit]",–
C=CCSc1nnc(-c2cccc3ccccc23)o1,"0.517 µM [rising, full curve, poor fit]",–
Clc1ccccc1-c1ccc(CN2CCN(c3ccccc3)CC2)o1,"0.82 µM [rising, full curve, poor fit]",–
COCCCNC(=O)CCn1nc(-c2ccc(Cl)cc2)ccc1=O,"5.62 µM [rising, single point]",–
CN(c1ccccc1)S(=O)(=O)c1ccc(C(=O)NCC2CCCO2)cc1 (stereo unspecified),"0.116 µM [rising, full curve, poor fit]",–
NS(=O)(=O)c1ccc(NC(=S)NC2CCCC2)cc1,"16.4 µM [falling, single point]",–
c1ccc(-c2nnc(-c3ccncc3)o2)cc1,"23.1 µM [falling, partial curve]",–
CCOc1cc(C2C(C#N)=C(N)OC(C)=C2C(C)=O)cc(Br)c1O (stereo unspecified),"3.66 µM [falling, partial curve, poor fit]",–
CC1CCc2nc(NC(=O)Cc3cccs3)sc2C1 (stereo unspecified),"29.1 µM [falling, single point]",–
COCCN1Cc2cccc(C(=O)Nc3ccc(-c4nc5ccccc5[nH]4)cc3)c2C1=O,"0.206 µM [falling, full curve]",–
N#Cc1c(-c2ccc(F)cc2)nc2n(c1=O)CCS2,"0.731 µM [falling, full curve, poor fit]",–
O=C(O)c1ccc(-n2cccc2)cc1O,"6.51 µM [falling, single point]",–
COC(=O)C1CCN(C(=O)CN2C(=O)NC3(CCC(C)CC3)C2=O)CC1 (stereo unspecified),"4.61 µM [rising, full curve, poor fit]",–
COc1cccc(N2CC(C(=O)Nc3ccc(C(=O)OC(C)C)cc3)CC2=O)c1 (stereo unspecified),"5.62 µM [rising, single point]",–
CC1=CC2=C(OC1N(C)C)c1cccc3cccc(c13)C2=O (stereo unspecified),"16.4 µM [falling, partial curve, poor fit]",–
O=C(N/N=C1\C(=O)c2cccc3cccc1c23)c1ccc(O)cc1,"5.62 µM [falling, partial curve, poor fit]",–
CCOc1ccc(-n2c(N)c(C(=O)NCC3CCCO3)sc2=S)cc1 (stereo unspecified),"5.62 µM [rising, partial curve, poor fit]",–
O=C(Nc1ccccc1C(=O)O)c1cccc(N2C(=O)c3ccccc3C2=O)c1,"3.16 µM [falling, partial curve]",–
CCOC(=O)c1c(NC(=O)CSc2nnc(CNc3ccc(F)cc3)o2)sc(C(C)=O)c1C,"18.4 µM [falling, partial curve, poor fit]",–
Clc1ccc(Nc2c3c(nc4ncnn24)CCC3)cc1,"3.55 µM [rising, partial curve]",–

# Three entries from above, tab-delimited.
SMILES	AC50 [1]	AC50 (measured here: IkBa-CBG green luminescence)
CCN(CC)C(=O)c1[nH]cnc1C(=O)Nc1ccc(C)cc1	16.4 µM [rising, partial curve, poor fit]	–
CC1=CC2=C(OC1N(C)C)c1cccc3cccc(c13)C2=O (stereo unspecified)	16.4 µM [falling, partial curve, poor fit]	–
O=C(Nc1ccccc1C(=O)O)c1cccc(N2C(=O)c3ccccc3C2=O)c1	3.16 µM [falling, partial curve]	–
